From US20070111930 (published 2007)

Test: general procedure: solution-phase peptide synthesis; DCC/HOBt; EDC hydrochloride/HOBt
Conditions: late stage modification step, acetate

Row | Substance | crude HPLC purity [%] | step yield
1 | 2TFA-(D)-Phe-Cys (Trt)-Tyr-(D) Trp-Lys-Val-Cys (Trt)-Trp-NH2 | 22 | Yield=75%
2 | Boc (D)-Phe-Cys (Acm)-Tyr-(D) Trp-Lys(Boc)-Val-OH | 73 | Yield=43.7%
